From publication PMC10831563
No constants are given. Whether binding was seen depends on the method and setting. Binding seen in cells or lysates may run through a third protein. Some entries that bind do so weakly or less than the wild type.

By UniProt entry, the sequences of proteins in these tests, tags left out. Where a name states a change or a piece, a line headed by the entry shows the natural chain unless it says otherwise.
UniProt Q15796: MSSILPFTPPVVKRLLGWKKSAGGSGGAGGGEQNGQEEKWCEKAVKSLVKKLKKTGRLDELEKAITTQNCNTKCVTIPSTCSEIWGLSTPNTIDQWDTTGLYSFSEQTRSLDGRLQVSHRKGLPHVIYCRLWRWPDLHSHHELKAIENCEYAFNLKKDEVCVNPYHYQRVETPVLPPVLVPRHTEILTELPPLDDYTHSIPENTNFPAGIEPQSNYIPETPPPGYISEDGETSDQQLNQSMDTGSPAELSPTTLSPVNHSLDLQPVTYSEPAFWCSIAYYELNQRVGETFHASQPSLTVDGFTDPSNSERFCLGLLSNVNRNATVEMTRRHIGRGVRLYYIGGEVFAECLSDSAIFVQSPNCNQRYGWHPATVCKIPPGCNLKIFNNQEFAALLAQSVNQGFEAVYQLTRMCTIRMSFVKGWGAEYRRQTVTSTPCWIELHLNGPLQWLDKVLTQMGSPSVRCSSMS
UniProt P84022: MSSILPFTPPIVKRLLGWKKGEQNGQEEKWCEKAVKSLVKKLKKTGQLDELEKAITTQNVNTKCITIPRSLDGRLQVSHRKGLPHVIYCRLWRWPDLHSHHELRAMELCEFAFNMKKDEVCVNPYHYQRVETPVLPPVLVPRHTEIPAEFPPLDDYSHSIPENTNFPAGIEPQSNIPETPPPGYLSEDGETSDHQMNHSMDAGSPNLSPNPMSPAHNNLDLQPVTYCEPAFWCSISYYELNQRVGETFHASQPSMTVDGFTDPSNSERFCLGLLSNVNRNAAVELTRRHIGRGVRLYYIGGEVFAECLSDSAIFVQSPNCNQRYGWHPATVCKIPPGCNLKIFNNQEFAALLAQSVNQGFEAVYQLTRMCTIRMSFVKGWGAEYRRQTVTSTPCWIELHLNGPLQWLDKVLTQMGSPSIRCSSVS
UniProt P03372: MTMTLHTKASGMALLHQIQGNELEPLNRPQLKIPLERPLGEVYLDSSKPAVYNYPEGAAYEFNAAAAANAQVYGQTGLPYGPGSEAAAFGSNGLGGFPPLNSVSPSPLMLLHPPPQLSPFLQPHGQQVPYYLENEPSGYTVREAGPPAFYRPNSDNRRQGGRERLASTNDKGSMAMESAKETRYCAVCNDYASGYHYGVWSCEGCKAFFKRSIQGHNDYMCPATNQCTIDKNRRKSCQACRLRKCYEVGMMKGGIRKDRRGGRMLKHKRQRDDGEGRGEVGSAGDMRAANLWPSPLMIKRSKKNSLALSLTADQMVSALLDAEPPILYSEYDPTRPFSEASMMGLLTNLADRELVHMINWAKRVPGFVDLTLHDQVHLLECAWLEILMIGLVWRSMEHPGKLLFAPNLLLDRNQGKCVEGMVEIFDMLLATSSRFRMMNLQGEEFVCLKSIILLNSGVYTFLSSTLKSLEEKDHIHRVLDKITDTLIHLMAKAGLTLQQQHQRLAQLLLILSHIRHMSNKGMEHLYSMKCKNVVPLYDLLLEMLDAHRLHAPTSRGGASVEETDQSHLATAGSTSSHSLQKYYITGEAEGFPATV

Assays:
[1] = molecular target: phosphor-Smad2 (human (endogenous in MCF10A, MDA-MB231, BT549, MCF7 and T47D)) (UniProt Q15796); assay: co-IP; MCF10A (legend: HMLE), MDA-MB231 and BT549 cells transfected with ERα or Flag-ERα, with/without TGFβ2 (10 ng/mL) treatment (Figure 3J)
[2] = molecular target: p-Smad3 (human (endogenous in MCF10A, MDA-MB231, BT549, MCF7 and T47D)) (UniProt P84022); assay: as above
[3] = molecular target: Smad2 (human (endogenous in MCF7 and T47D)) (UniProt Q15796); assay: co-IP; MCF7 and T47D cells, upon TGFβ2 treatment (Figure S3A); which protein was precipitated is not told
[4] = molecular target: Smad3 (human (endogenous in MCF7 and T47D)) (UniProt P84022); assay: as above
[5] = molecular target: phosphor-Smad2 (human (endogenous in MCF10A, MDA-MB231, BT549, MCF7 and T47D)) (UniProt Q15796); assay: co-IP; endogenous proteins of T47D and MCF7 cells, with ERα shRNAs, in the presence of TGFβ2 (10 ng/mL) treatment (Figure 3K, Figure S3H); 'in the nucleus'
[6] = molecular target: p-Smad3 (human (endogenous in MCF10A, MDA-MB231, BT549, MCF7 and T47D)) (UniProt P84022); assay: as above

ERα expressed in MCF10A, MDA-MB231 and BT549 cells (from UniProt P03372 1-595)
binding [1]: binds
binding [2]: binds

ERα in MCF7 and T47D cells (printed as 'expressed ERα', Figure S3A) (from UniProt P03372 1-595)
binding [3]: binds
binding [4]: binds

Endogenous ERα of MCF7 and T47D cells (from UniProt P03372 1-595)
binding [5]: binds
binding [6]: binds
